From PubChem BioAssay AID2417 (National Center for Advancing Translational Sciences (NCATS), 2010)
Among all 140,000 compounds or so, about 4,300 (3.1%) were called active. Inconclusive results, whose numbers are uncertain, are shown with a selection of clear calls.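 The calls were made as follows: active = readout at or below -70, meaning at least 70% loss of cells showing the perinucleolar compartment, a nuclear body marking cancer cells; inconclusive = readout between -30 and a set limit; inactive = the rest.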

Experiment: High Content Assay for Compounds that inhibit the Assembly of the Perinucleolar Compartment;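 also: plate controls were DMSO wells for no effect and camptothecin positive control wells for full effect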
Conditions: PC3M PTB-GFP, PNC prevalence imaging, 16 h; at 10 µM; stronger effect = lower value
Summary of the method: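 PC3M cells stably expressing PTB-GFP, 750–1000 cells/well, treated 16 h at 37 °C with compound (23 nl of library stock), in duplicate. After paraformaldehyde fixation and Hoechst stain, imaged at 20x; PNC prevalence scored by image analysis.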

SMILES	activity change (PNC), negative = inhibition
Cc1ncoc1C(=O)Nc1nccs1	inactive: 9.64%
Cc1ccc(Oc2ncccc2/C=N/OCc2ccc(Cl)cc2Cl)cc1	inconclusive: -31.9%
Cc1ccc2cccc(NC3OC(=O)c4ccccc43)c2n1 (stereo unspecified)	inconclusive: -61.5%
O=C(Nc1ccccc1Cl)c1ccccc1Cc1ccccc1	inconclusive: -40.8%
CCOc1cc(C2NC(=O)N(C)C(C)=C2C(=O)OC)cc(Br)c1O (stereo unspecified)	inconclusive: -47.6%
O=C(CCCOc1ccc(Cl)cc1Cl)NCCCO	inconclusive: -56.3%
O=C(CCCc1ccccc1)N1CCc2ccccc21	inactive: 3.57%
O=C(OC(c1ccccc1)c1nccc2ccccc12)c1cc([N+](=O)[O-])cc([N+](=O)[O-])c1 (stereo unspecified)	inconclusive: -38%
CC(C)Oc1ccc(/C(O)=C2/C(=O)C(=O)N(CCN3CCOCC3)C2c2ccccc2)cc1 (stereo unspecified)	inactive: -17.4%
O=C(CCN1CCCCCC1)Nc1ccc(F)c(F)c1	inconclusive: -41.9%
O/N=C/c1ccc(OCc2ccccc2)c(Br)c1	inactive: 12.3%
COc1ccc(N2CCN(CC(=O)Nc3ccc(SC(F)F)cc3)CC2)cc1	inactive: 8.39%
O=C(CC1Oc2ccc(Cl)cc2NC1=O)NC1CCCCCC1 (stereo unspecified)	inactive: -2.94%
CN(CC(=O)NCc1ccc2c(c1)OCO2)S(=O)(=O)c1ccc(Br)s1	inactive: 19.7%
CCOC(=O)c1c(NC(C)=O)sc2c(O)c(Br)ccc12	active: -80.8%
O=C(c1cnccn1)N(Cc1cccs1)C1(C(=O)NC2CCCCC2)CCCCC1	inconclusive: -30.7%
CCn1cc(C(=O)O)c(=O)c2cc(S(=O)(=O)N(C)C)ccc21	inconclusive: -62.8%
COc1ccc(OCc2n[nH]c(=S)o2)cc1	inconclusive: -56.2%
CCN1C(=O)[C@H]2[C@H]3[C@H](O)[C@H](O)C/C(=N\O[C@H](C)c4cn([C@H](CO)Cc5ccccc5)nn4)[C@@H]3CC[C@H]2C1=O	inconclusive: -55.7%
COc1ccc(Cn2c(N)c(C#N)c3nc4ccccc4nc32)cc1	inconclusive: -65.6%
CCN(CC)C(=O)CSc1nnc(CNc2ccc(F)cc2)n1Cc1ccco1	inconclusive: -52.8%
CCOc1ccc(C2C(C(=O)Nc3ccc(F)cc3)=C(C)Nc3nc(CCCO)nn32)cc1 (stereo unspecified)	inconclusive: -52.5%
O=C(Nc1ccccc1)c1ccccc1OCc1cccc([N+](=O)[O-])c1	active: -99.3%

Looked up one by one from above, four records:
SMILES	activity change (PNC), negative = inhibition
O=C(CCN1CCCCCC1)Nc1ccc(F)c(F)c1	inconclusive: -41.9%
O=C(OC(c1ccccc1)c1nccc2ccccc12)c1cc([N+](=O)[O-])cc([N+](=O)[O-])c1 (stereo unspecified)	inconclusive: -38%
COc1ccc(Cn2c(N)c(C#N)c3nc4ccccc4nc32)cc1	inconclusive: -65.6%
O=C(Nc1ccccc1)c1ccccc1OCc1cccc([N+](=O)[O-])c1	active: -99.3%

Later entries.

SMILES	activity change (PNC), negative = inhibition
CC(C)(C)NC(=S)NC(=O)C12CC3CCC(CC(C3)C1)C2	inactive: 22.3%
O=C(c1cc2nc(-c3ccco3)cc(C(F)(F)F)n2n1)N1CCN(Cc2ccccc2)CC1	inactive: 20.7%
CCOc1ccc(C2C(C#N)=C(N)Oc3cc(C)n(Cc4ccco4)c(=O)c32)cc1OC (stereo unspecified)	inactive: 24.2%
CCO/C=C1/C(=O)N(CC)c2ccccc21	inconclusive: -32%
O=[N+]([O-])c1ccc(CSc2nnc(SCc3ccccc3)s2)cc1	inconclusive: -33.4%
Cc1cccc(/C=N/Nc2cc(N3CCOCC3)nc(N3CCOCC3)n2)c1	inconclusive: -35.8%
CC1(CCc2ccccc2)NC(=S)N(c2ccc(Cl)cc2)N1 (stereo unspecified)	inactive: -5.17%
O=c1c2ccccc2nc(/C=C/c2ccc(O)cc2)n1CCc1ccccc1	inconclusive: -45.2%
COc1cccc(/C=N/c2oc(-c3ccccc3)cc2C#N)c1O	inconclusive: -45.3%
CCOc1cc(C(C#N)N2CCOCC2)ccc1OC (stereo unspecified)	inconclusive: -63.2%
Cc1ccc(C(=O)CSC2=NC(N)=C(C#N)C3(CCCCC3)C2C(N)=O)cc1 (stereo unspecified)	inconclusive: -44.8%
CCOc1ccccc1N1CCN(C(=O)c2c(C)noc2C)CC1	inconclusive: -46.1%
Cc1ccc(S(=O)(=O)c2nc(NCCN(C)C)sc2Cl)cc1	inconclusive: -48.7%
COc1cc(/C=N/NC(=O)c2ccccn2)cc2c1OCO2	inconclusive: -59.8%
CCn1ncc(C2C(C(=O)Nc3ccc(C)cn3)=C(C)NC3=C2C(=O)CCC3)c1C (stereo unspecified)	inconclusive: -39.9%
O=c1c2ccccc2nnn1CSc1nc2ccccc2[nH]1	inactive: -19.9%
Cc1[nH]c2ccccc2c1C(O)CN1CCN(c2cccc(C(F)(F)F)c2)CC1 (stereo unspecified)	inactive: -3.27%
O=C(N/N=C/c1ccc2c(c1)OCO2)c1cccs1	inactive: 15.5%
CCOc1ccc(-n2c(=S)sc3c(=O)[nH]c(SCC(=O)NC(C)CC)nc32)cc1 (stereo unspecified)	active: -82.9%
O=C(CSc1nc2ccccc2n1S(=O)(=O)c1cccc([N+](=O)[O-])c1)NCCc1ccccc1	active: -113%
O=C(O)C1C2C=CC(C2)C1C(=O)N1CCc2ccccc21 (stereo unspecified)	inconclusive: -55%
C/C(CCc1oc2ccc(Cl)cc2c1-c1ccc(C)o1)=N\O	inconclusive: -74.2%
O=C(c1cccc(Br)c1)c1cn(-c2ccccc2)nc1C(=O)c1ccccc1	inactive: 8.08%
